Hit rate of the full screen: of about 360,000 compounds, about 500 (0.14%) were called active. This list was built around the results that the source calls inconclusive (neither active nor inactive); the mix of calls is not that of the screen.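 The calls were made as follows: active = mean inhibition of at least 70% across replicates, with every replicate also reaching that level; inconclusive = mean inhibition reaches 70% but some replicates fall short; inactive = mean inhibition below 70%.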 A structure can be active in one record and inactive in another.
molecular target: Protein S100-A4 (Homo sapiens) (UniProt P26447); assay: inhibitors of S100A4-myosin IIA peptide binding, primary screen, biochemical, fluorescence polarization, TAMRA-MyoIIA peptide (AID 652163); conditions: at 10.7 µM, active compounds read high
Method in brief: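 incubation = readout 5 min after mixing, signal stable up to 60 min | system = S100A4 monomer protein | buffer or medium = HEPES pH 7.2 with CaCl2, KCl, NaCl, DTT, Triton | benchmarks = neutral control DMSO, positive control TFP | also added = fluorescent myosin IIA peptide, 5 nM | compound dosing = one concentration per compound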

Amino acid sequences for entries named in this document (tags omitted).
UniProt P26447, whole entry, looked up: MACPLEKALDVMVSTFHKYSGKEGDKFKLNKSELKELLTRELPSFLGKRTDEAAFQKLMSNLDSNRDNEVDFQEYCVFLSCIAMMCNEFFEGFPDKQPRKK

inhibition, inactive:
Cc1ccc(Cc2c(-c3ccc(C#N)cc3)nc3ccc(Br)cn23)cc1 -8.81%
Fc1ccccc1/C=N/NC(=S)Nc1ccc(Cl)cc1Cl -11.7%
Cc1cccc2nc(-c3cccc(NC(=O)Cc4ccccc4)c3)cn12 -8.84%
C[C@@H]1CN([C@@H](C)CO)C(=O)c2cccc(NS(=O)(=O)c3ccc(F)cc3)c2O[C@H]1CN(C)Cc1ccc(-c2ccccc2)cc1 57.7%
CNC(=O)C[C@@H]1CC[C@@H]2[C@@H](COc3ccc(NC(=O)Nc4ccc(F)c(F)c4)cc3C(=O)N2C)O1 -13.5%
COc1ccc2ccccc2c1CNC(C)c1ccccc1 (stereo unspecified) -2.15%
CCOc1ccc(/C=C2\SC(=O)N(CCNC(=O)CN3C(=O)NC4(CCCC4)C3=O)C2=O)cc1OC -9.64%
O=[N+]([O-])c1ccc(/C=N/Nc2nc(NCc3ccccc3)nc(N3CCOCC3)n2)cc1 6.05%
Cn1cccc1C(=O)OCC(=O)NCc1ccc2c(c1)OCO2 -4.04%
COc1ccccc1C#Cc1cnc2c(c1)C(=O)N([C@@H](C)CO)C[C@@H](C)[C@@H](CN(C)C(=O)c1ccc3c(c1)OCO3)O2 0.679%
CCOc1ccccc1NC(=O)NCc1ccccc1 1.85%
CCC(=O)N1CC[C@@H]2[C@H]1c1cc(-c3ccc(F)cc3)ccc1N[C@@H]2CO 0.038%
C#CCN(C(=O)c1ccc(OC2CCN(C(=O)CCOC)CC2)cc1)C1CCCCC1 -0.168%
C[C@H](NC(=O)c1ccc(Cl)cc1)C(=O)NCCc1ccc(S(N)(=O)=O)cc1 0.328%
C/C(=C\c1ccccc1)CN1CCC(C(=O)N2CCCCC2)CC1 -0.53%
O=S(=O)(c1cccs1)N1CCCCN2[C@H](CO)[C@H](c3ccc(-c4ccccc4)cc3)[C@@H]2C1 -1.84%
C[C@@H]1CN([C@@H](C)CO)C(=O)c2cccc(NC(=O)Nc3ccc(C(F)(F)F)cc3)c2O[C@@H]1CN(C)CC1CCCCC1 4.51%
COc1cccc2sc3cc(NCCCN4CCOCC4)ccc3c(=O)c12 -2.64%
Clc1ccc(-c2c[nH]c3ccccc23)nn1 -5.76%
O=C(C[C@@H]1CC[C@H]2[C@@H](COC[C@@H](O)CN2C(=O)c2ccccc2)O1)Nc1ccc(-c2ccccc2)cc1 4.77%
Cc1ccc(-c2ccc(/C=N/NC(=O)Cc3nnc(N)s3)o2)cc1Cl -11.2%
CCCNC(=O)N1C[C@H](C)[C@@H](OC)CN(C)C(=O)c2cc(NS(=O)(=O)CC(F)(F)F)ccc2OC[C@H]1C 9.16%

inhibition, inconclusive:
COc1cccc(-c2cnc3c(c2)C(=O)N([C@H](C)CO)C[C@@H](C)[C@H](CN(C)C(C)=O)O3)c1 73.9%
CO[C@H]1CN(C)C(=O)c2cc(NS(=O)(=O)c3ccccc3C)ccc2OC[C@@H](C)N(C)C[C@H]1C 86.1%
O=C(C[C@H]1C[C@@H]2c3cc(NC(=O)Nc4ccccc4)ccc3O[C@@H]2[C@@H](CO)O1)NCc1ccccc1 76.2%
C[C@@H]1CN([C@H](C)CO)C(=O)c2cc(NC(=O)CCC(F)(F)F)ccc2O[C@@H]1CN(C)C(=O)Nc1ccccc1 83.6%
Cc1ccc(-c2ccc3c(c2)O[C@H](CN(C)C(=O)C2CCC2)[C@@H](C)CN([C@H](C)CO)S3(=O)=O)cc1 115%
O=C(C[C@@H]1CC[C@@H](NC(=O)c2ccccc2)[C@H](CO)O1)NCCc1ccncc1 95.7%
COc1ccc2c3c([nH]c2c1)[C@H](CO)N(C(=O)Nc1ccc(F)cc1)CC31CCN(S(=O)(=O)c2ccc(C)cc2)CC1 77.1%
CC(=O)N[C@@H]1CC[C@H](CC(=O)NCC2CCCCC2)O[C@@H]1CO 82.2%
CC(=O)N1[C@@H]2Cn3c(ccc(C4=CCCCC4)c3=O)[C@H]1[C@@H](C(=O)N[C@@H](C)c1ccccc1)[C@@H]2CO 76.2%
CNC[C@@H]1OCCCC[C@@H](C)Oc2ccc(NC(=O)Cc3ccccc3)cc2C(=O)N([C@H](C)CO)C[C@@H]1C 102%
Brc1ccccc1-c1nnc(COc2ncnc3ccccc23)o1 99.5%
O=C(Oc1cccnc1)c1cccc(Cl)c1 72.8%
Cc1ccccc1NC(=O)c1cccc(S(C)(=O)=O)c1 137%
C[C@@H]1CN([C@H](C)CO)C(=O)c2cc(N(C)C)ccc2O[C@@H](C)CCCCO[C@H]1CN(C)C(=O)c1ccccc1 101%
O=C(C[C@H]1C=C[C@@H](NC(=O)c2cccnc2)[C@@H](CO)O1)NCc1ccncn1 76.6%
CN(C)CCCCCCNC(=O)[C@@H]1C[C@@H]2C(=O)N3CCC[C@H]3C(=O)N2[C@@H]1c1ccc(O)cc1 78.9%
C/C(NC(=O)c1cccs1)=C1\C(=O)C[C@@H]2[C@H]1C2(C)C 162%
COc1cccc(CN2CCNC(=O)C2CC(=O)N(C)CCC2CCOCC2)c1OC (stereo unspecified) 88.2%
CCC(=O)N1[C@H](CO)[C@@H]2c3ccccc3N(S(=O)(=O)c3ccccc3F)C[C@@H]21 111%
Cc1noc(C)c1S(=O)(=O)Nc1ccc2c(c1)C(=O)N([C@@H](C)CO)C[C@@H](C)[C@@H](CN(C)Cc1ccncc1)OCCCC[C@H](C)O2 82.3%
CCC(=O)N1CCCc2ccccc21 89.9%
C[C@@H]1CN([C@H](C)CO)S(=O)(=O)c2ccc(C#CC3(O)CCCC3)cc2O[C@@H]1CN(C)CC1CC1 71.7%
O=C(c1ccccc1)N1CN2CN(C(=O)c3ccccc3)CC([N+](=O)[O-])(C2)C1 176%
CCOC(=O)c1cc(C#N)c(C)nc1N(CC)CC 72%
COc1ccc(S(=O)(=O)Nc2cccc3c2O[C@H](CN(C)S(=O)(=O)c2cccs2)[C@H](C)CN([C@H](C)CO)C3=O)cc1 108%
COc1ccccc1S(=O)(=O)N1C[C@@H]2N[C@H](C1)C2c1ccc(-c2cccc(F)c2)cc1 (stereo partly specified) 70.3%
O=C(NC(=S)N1CCCCC1)c1cccnc1 104%
CN(C)CC(=O)N[C@@H]1CC[C@@H](CC(=O)O)O[C@H]1CO 82.8%
COCC(=O)N1CCC(Oc2ccc(C(=O)N(C)Cc3nccs3)cc2)CC1 99.5%
CCCCNC(=O)C1(C)CCN1C(=O)c1ccccc1Br (stereo unspecified) 95.1%
COc1ccccc1-c1sc2cc3c(cc2c1-c1ccc(O)cc1)OCO3 78.8%
C[C@@H]1CCCCO[C@@H](CN(C)S(=O)(=O)c2ccc(F)cc2)[C@@H](C)CN([C@H](C)CO)C(=O)c2cc(N(C)C)ccc2O1 72.2%
Cc1ccc(C(=O)NCC(=O)OCCOc2cccc(Cl)c2)cc1 73%
OC[C@H]1[C@H](c2ccc(-c3ccccc3F)cc2)[C@@H]2CN(Cc3cncnc3)CCCCN12 86.8%
Cc1ccccc1N(C(=O)c1csnn1)C(C(=O)NC1CCCC1)c1ccncc1 (stereo unspecified) 86.4%
COc1cccc(C(=O)Nc2ccc3c(c2)C(=O)N(C)[C@H]2CC[C@H](CC(=O)NCCCN4CCOCC4)O[C@@H]2CO3)c1 78.1%
CCCCOC(C)n1cc(F)c(=O)[nH]c1=O (stereo unspecified) 91%
CCCNC(=O)[C@H]1[C@H](CO)[C@H]2Cn3c(ccc(-c4cccc(F)c4)c3=O)[C@H]2N1C(C)=O 81.7%
C[C@H](NC(=O)C[C@H]1C=C[C@@H](NS(=O)(=O)c2cccc(F)c2)[C@@H](CO)O1)c1ccccc1 81.8%
CC(C)NC(=O)Nc1ccc2c(c1)C(=O)N([C@H](C)CO)C[C@H](C)[C@@H](CN(C)C(=O)Nc1ccc(C(F)(F)F)cc1)OCCCC[C@H](C)O2 79.6%
C[C@@H]1CN([C@@H](C)CO)S(=O)(=O)c2ccc(C#Cc3ccncc3)cc2O[C@H]1CN(C)C(=O)C1CC1 74.9%
C[C@@H]1CCCCO[C@H](CN(C)S(=O)(=O)c2cccs2)[C@@H](C)CN([C@H](C)CO)C(=O)c2cc(NC(=O)Nc3ccccc3)ccc2O1 84%

At a glance, 16 of the compounds above:
inhibition, inconclusive:
CCOC(=O)c1cc(C#N)c(C)nc1N(CC)CC 72%
COc1ccc(S(=O)(=O)Nc2cccc3c2O[C@H](CN(C)S(=O)(=O)c2cccs2)[C@H](C)CN([C@H](C)CO)C3=O)cc1 108%
COc1ccccc1S(=O)(=O)N1C[C@@H]2N[C@H](C1)C2c1ccc(-c2cccc(F)c2)cc1 (stereo partly specified) 70.3%
O=C(NC(=S)N1CCCCC1)c1cccnc1 104%
CN(C)CC(=O)N[C@@H]1CC[C@@H](CC(=O)O)O[C@H]1CO 82.8%
COCC(=O)N1CCC(Oc2ccc(C(=O)N(C)Cc3nccs3)cc2)CC1 99.5%
CCCCNC(=O)C1(C)CCN1C(=O)c1ccccc1Br (stereo unspecified) 95.1%
COc1ccccc1-c1sc2cc3c(cc2c1-c1ccc(O)cc1)OCO3 78.8%
C[C@@H]1CCCCO[C@@H](CN(C)S(=O)(=O)c2ccc(F)cc2)[C@@H](C)CN([C@H](C)CO)C(=O)c2cc(N(C)C)ccc2O1 72.2%
Cc1ccc(C(=O)NCC(=O)OCCOc2cccc(Cl)c2)cc1 73%
OC[C@H]1[C@H](c2ccc(-c3ccccc3F)cc2)[C@@H]2CN(Cc3cncnc3)CCCCN12 86.8%
Cc1ccccc1N(C(=O)c1csnn1)C(C(=O)NC1CCCC1)c1ccncc1 (stereo unspecified) 86.4%
COc1cccc(C(=O)Nc2ccc3c(c2)C(=O)N(C)[C@H]2CC[C@H](CC(=O)NCCCN4CCOCC4)O[C@@H]2CO3)c1 78.1%
CCCCOC(C)n1cc(F)c(=O)[nH]c1=O (stereo unspecified) 91%
CCCNC(=O)[C@H]1[C@H](CO)[C@H]2Cn3c(ccc(-c4cccc(F)c4)c3=O)[C@H]2N1C(C)=O 81.7%
C[C@H](NC(=O)C[C@H]1C=C[C@@H](NS(=O)(=O)c2cccc(F)c2)[C@@H](CO)O1)c1ccccc1 81.8%

Following part:

inhibition, active:
CCOc1cc(/C=C2\CCCc3c2nc2ccccc2c3C(=O)O)ccc1OC 80%
C[C@@H]1CN([C@H](C)CO)C(=O)CCCn2nncc2CO[C@@H]1CN(C)S(=O)(=O)c1ccc2ccccc2c1 93.1%
COc1ccc(C#Cc2ccc([C@H]3[C@H]4CN(C(=O)Nc5ccccc5)CCCCN4[C@H]3CO)cc2)cc1 119%
O=C(CSc1ccsc1[N+](=O)[O-])NCc1ccccc1 104%
C[C@@H]1CN([C@@H](C)CO)C(=O)c2cc(NC(=O)NC3CCCCC3)ccc2O[C@@H](C)CCCCO[C@@H]1CN(C)S(=O)(=O)c1cn(C)cn1 136%
CC(=O)Nc1ccc(C=NNc2nnc(NN=Cc3ccc(NC(C)=O)cc3)c3ccccc23)cc1 72%
CC=Cc1ccc2n(c1=O)C[C@@H]1[C@@H](CO)[C@H](C(=O)NCc3ccc4c(c3)OCO4)[C@H]2N1C(C)=O (mixture of isomers) 125%
